The experiment deals with voltage-dependent anion-selective channel protein 1 (VDAC1), endogenous in primary cortical neurons (rat (endogenous in primary cortical neurons)) (UniProt Q9Z2L0). Briefly: co-IP; primary neurons stimulated with 10 µM OxyHb for 12 h, then vehicle, EPAC-1 inhibitor ESI09 (10 µM), activator 8CPT (10 µM) or celastrol for 24 h; antibody (1 µg) overnight at 4 °C, protein A/G agarose beads, western blot; which protein was precipitated is not told. A general note: Immunoblotting shows a protein as a band on a membrane.

By UniProt entry, the sequences of proteins in these tests, tags left out.
UniProt Q9Z2L0: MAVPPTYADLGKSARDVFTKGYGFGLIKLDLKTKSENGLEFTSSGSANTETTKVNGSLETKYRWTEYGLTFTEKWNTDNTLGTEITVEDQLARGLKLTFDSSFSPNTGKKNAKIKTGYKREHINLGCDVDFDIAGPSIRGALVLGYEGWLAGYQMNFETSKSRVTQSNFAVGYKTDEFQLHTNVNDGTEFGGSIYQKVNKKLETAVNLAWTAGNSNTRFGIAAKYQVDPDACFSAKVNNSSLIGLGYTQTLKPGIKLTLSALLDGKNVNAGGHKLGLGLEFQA
UniProt Q9Z1C8: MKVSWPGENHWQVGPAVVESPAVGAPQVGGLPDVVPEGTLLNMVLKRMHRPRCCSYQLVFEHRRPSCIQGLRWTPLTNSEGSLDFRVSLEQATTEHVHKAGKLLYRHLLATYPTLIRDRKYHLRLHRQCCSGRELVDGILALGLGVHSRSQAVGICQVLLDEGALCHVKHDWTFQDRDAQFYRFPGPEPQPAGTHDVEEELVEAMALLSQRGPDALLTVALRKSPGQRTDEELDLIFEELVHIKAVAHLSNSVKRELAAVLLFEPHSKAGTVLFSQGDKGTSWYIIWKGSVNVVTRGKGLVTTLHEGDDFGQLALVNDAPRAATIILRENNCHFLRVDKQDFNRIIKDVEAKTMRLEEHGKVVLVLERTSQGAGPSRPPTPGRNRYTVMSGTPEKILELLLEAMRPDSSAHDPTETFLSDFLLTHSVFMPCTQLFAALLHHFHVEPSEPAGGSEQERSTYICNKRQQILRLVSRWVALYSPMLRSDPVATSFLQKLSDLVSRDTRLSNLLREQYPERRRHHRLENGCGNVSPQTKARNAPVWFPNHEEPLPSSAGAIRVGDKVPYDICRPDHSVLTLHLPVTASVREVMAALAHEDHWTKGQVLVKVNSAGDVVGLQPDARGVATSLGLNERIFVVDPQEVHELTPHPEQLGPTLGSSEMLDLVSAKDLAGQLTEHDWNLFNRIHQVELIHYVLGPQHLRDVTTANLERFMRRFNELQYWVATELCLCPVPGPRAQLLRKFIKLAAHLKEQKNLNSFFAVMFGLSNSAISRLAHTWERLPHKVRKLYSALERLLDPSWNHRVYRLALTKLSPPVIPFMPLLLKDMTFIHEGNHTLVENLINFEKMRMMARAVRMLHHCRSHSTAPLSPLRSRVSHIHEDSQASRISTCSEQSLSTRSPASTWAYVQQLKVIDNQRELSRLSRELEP

The values below come from PMC11109624, “Celastrol Ameliorates Neuronal Mitochondrial Dysfunction Induced by Intracerebral Hemorrhage via Targeting cAMP‐Activated Exchange Protein‐1” (Advanced Science, 2024).

These are yes or no findings as the source states them, for the method shown. Binding seen in cells or lysates may run through a third protein. Some entries that bind do so weakly or less than the wild type.

Regarding “cAMP-activated exchange protein-1 (EPAC-1), endogenous in primary cortical neurons (from UniProt Q9Z1C8 1-926)”, the binding result is “binds”.
